# Measured values: the supplement of paper PMC8728848
# Some of the results follow.
# How the values were obtained:
# Experiment in all cases: glycan array binding signal (z-score within array); higher = stronger binding
# Settings in all cases: glycan notation: IUPAC condensed, linker removed
# Gal3S(b1-4)Glc = target: Gal3S(b1-4)Glc
# In short: (§1)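 The Consortium for Functional Glycomics database supplied 3228 glycan arrays, of which those lacking an available protein sequence were dropped. The binding signal, a within-array Z-score, was averaged across arrays of the same protein sequence and across linkers. Negative scores can be read as non-binding.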
# Gal3S(b1-4)Glc6S = target: Gal3S(b1-4)Glc6S
# In short: as §1
# Gal3S(b1-4)GlcNAc = target: Gal3S(b1-4)GlcNAc
# In short: as §1
# [1] = target: Gal3S(b1-4)[Fuc(a1-3)]Glc6S
# In short: as §1
# [2] = target: Gal3S(b1-4)[Fuc(a1-3)]GlcNAc
# In short: as §1
# [3] = target: Gal3S(b1-4)[Fuc(a1-3)]GlcNAc6S
# In short: as §1
# Gal3S4S(b1-4)GlcNAc = target: Gal3S4S(b1-4)GlcNAc
# In short: as §1
# Gal3S6S(b1-4)GlcNAc = target: Gal3S6S(b1-4)GlcNAc
# In short: as §1
# Gal3S6S(b1-4)GlcNAc6S = target: Gal3S6S(b1-4)GlcNAc6S
# In short: as §1
# Gal4S(b1-4)GlcNAc = target: Gal4S(b1-4)GlcNAc
# In short: as §1
# Gal4S6S(b1-4)GlcNAc = target: Gal4S6S(b1-4)GlcNAc
# In short: as §1
# Gal6P(b1-4)GlcNAc = target: Gal6P(b1-4)GlcNAc
# In short: as §1
# Gal6S(b1-3)GlcNAc = target: Gal6S(b1-3)GlcNAc
# In short: as §1
# Gal6S(b1-3)GlcNAc6S = target: Gal6S(b1-3)GlcNAc6S
# In short: as §1
# Gal6S(b1-4)Glc = target: Gal6S(b1-4)Glc
# In short: as §1
# Gal6S(b1-4)Glc6S = target: Gal6S(b1-4)Glc6S
# In short: as §1
# Gal6S(b1-4)GlcNAc = target: Gal6S(b1-4)GlcNAc
# In short: as §1
# Gal6S(b1-4)GlcNAc6S = target: Gal6S(b1-4)GlcNAc6S
# In short: as §1
# GalNAc(a1-3)Gal = target: GalNAc(a1-3)Gal
# In short: as §1
# GalNAc(a1-3)GalNAc = target: GalNAc(a1-3)GalNAc
# In short: as §1
# [4] = target: GalNAc(a1-3)GalNAc(b1-3)Gal(a1-4)Gal(b1-4)Glc
# In short: as §1
# [5] = target: GalNAc(a1-3)GalNAc(b1-3)Gal(a1-4)Gal(b1-4)GlcNAc
# In short: as §1
# GalNAc(b1-3)Gal = target: GalNAc(b1-3)Gal
# In short: as §1
# [6] = target: GalNAc(b1-3)Gal(a1-4)Gal(b1-4)GlcNAc
# In short: as §1
# [7] = target: GalNAc(b1-3)Gal(a1-4)Gal(b1-4)GlcNAc(b1-3)Gal(b1-4)Glc
# In short: as §1
# [8] = target: GalNAc(b1-3)Gal(a1-6)Gal(b1-4)Glc
# In short: as §1
# GalNAc(b1-3)GalNAc = target: GalNAc(b1-3)GalNAc
# In short: as §1
# GalNAc(b1-3)GlcNAc = target: GalNAc(b1-3)GlcNAc
# In short: as §1
# GalNAc(b1-4)Gal(b1-4)Glc = target: GalNAc(b1-4)Gal(b1-4)Glc
# In short: as §1
# GalNAc(b1-4)GlcNAc = target: GalNAc(b1-4)GlcNAc
# In short: as §1
# [9] = target: GalNAc(b1-4)GlcNAc(b1-2)Man
# In short: as §1
# [10] = target: GalNAc(b1-4)GlcNAc(b1-2)Man(a1-3)[GalNAc(b1-4)GlcNAc(b1-2)Man(a1-6)]Man(b1-4)GlcNAc(b1-4)GlcNAc
# In short: as §1
# [11] = target: GalNAc(b1-4)GlcNAc(b1-3)GalNAc(b1-4)GlcNAc
# In short: as §1
# GalNAc(b1-4)GlcNAc6S = target: GalNAc(b1-4)GlcNAc6S
# In short: as §1
# GalNAc(b1-6)GalNAc = target: GalNAc(b1-6)GalNAc
# In short: as §1
# GalNAc3S(b1-4)GlcNAc = target: GalNAc3S(b1-4)GlcNAc
# In short: as §1
# GalNAc3S(b1-4)GlcNAc3S = target: GalNAc3S(b1-4)GlcNAc3S
# In short: as §1
# [12] = target: GalNAc3S(b1-4)[Fuc(a1-3)]GlcNAc
# In short: as §1
# GalNAc4S6S(b1-4)GlcNAc = target: GalNAc4S6S(b1-4)GlcNAc
# In short: as §1
# GalNAc6S(b1-4)GlcNAc = target: GalNAc6S(b1-4)GlcNAc
# In short: as §1
# Glc(a1-4)Glc = target: Glc(a1-4)Glc
# In short: as §1
# [13] = target: Glc(a1-4)Glc(a1-4)Glc(a1-4)Glc
# In short: as §1
# Glc(a1-6)Glc(a1-6)Glc = target: Glc(a1-6)Glc(a1-6)Glc
# In short: as §1
# [14] = target: Glc(a1-6)Glc(a1-6)Glc(a1-6)Glc
# In short: as §1
# Glc(b1-4)Glc = target: Glc(b1-4)Glc
# In short: as §1
binder,measurement,setting,value
SJCP3842 (Schistosoma japonicum) (protein) MFKMRIINLVNISTVLLLINLLQTKSRLVGKENGFMLTVSIYGAQLSDKMTSVPVSWTIDYEDPEKSAFKKLVTDSCDTFSEYVKSQIPKGSVDGQCTSHIFQRPGSGSGVSISLTLSFIYVDVTQPDTVALKTELEKHFANFVTIHSHKITQAQFRINQKAIVIPTGDKDAIDGSKWKIIAIIALVALAIVVIGGFIYICVK,glycan array binding signal (z-score),Gal3S(b1-4)Glc,0.559
same,glycan array binding signal (z-score),Gal3S(b1-4)Glc6S,0.326
same,glycan array binding signal (z-score),Gal3S(b1-4)GlcNAc,-0.697
same,glycan array binding signal (z-score),[1],2.61
same,glycan array binding signal (z-score),[2],1.34
same,glycan array binding signal (z-score),[3],0.652
same,glycan array binding signal (z-score),Gal3S4S(b1-4)GlcNAc,-0.987
same,glycan array binding signal (z-score),Gal3S6S(b1-4)GlcNAc,2.36
same,glycan array binding signal (z-score),Gal3S6S(b1-4)GlcNAc6S,-0.441
same,glycan array binding signal (z-score),Gal4S(b1-4)GlcNAc,-1.43
same,glycan array binding signal (z-score),Gal4S6S(b1-4)GlcNAc,-1.04
same,glycan array binding signal (z-score),Gal6P(b1-4)GlcNAc,0.022
same,glycan array binding signal (z-score),Gal6S(b1-3)GlcNAc,-0.626
same,glycan array binding signal (z-score),Gal6S(b1-3)GlcNAc6S,1.25
same,glycan array binding signal (z-score),Gal6S(b1-4)Glc,0.36
same,glycan array binding signal (z-score),Gal6S(b1-4)Glc6S,-1.02
same,glycan array binding signal (z-score),Gal6S(b1-4)GlcNAc,0.571
same,glycan array binding signal (z-score),Gal6S(b1-4)GlcNAc6S,-0.384
same,glycan array binding signal (z-score),GalNAc(a1-3)Gal,0.952
same,glycan array binding signal (z-score),GalNAc(a1-3)GalNAc,0.964
same,glycan array binding signal (z-score),[4],1.06
same,glycan array binding signal (z-score),[5],0.086
same,glycan array binding signal (z-score),GalNAc(b1-3)Gal,0.893
same,glycan array binding signal (z-score),[6],0.069
same,glycan array binding signal (z-score),[7],0.831
same,glycan array binding signal (z-score),[8],-1.53
same,glycan array binding signal (z-score),GalNAc(b1-3)GalNAc,-0.397
same,glycan array binding signal (z-score),GalNAc(b1-3)GlcNAc,-0.342
same,glycan array binding signal (z-score),GalNAc(b1-4)Gal(b1-4)Glc,0.111
same,glycan array binding signal (z-score),GalNAc(b1-4)GlcNAc,0.242
same,glycan array binding signal (z-score),[9],-0.994
same,glycan array binding signal (z-score),[10],0.2
same,glycan array binding signal (z-score),[11],-0.383
same,glycan array binding signal (z-score),GalNAc(b1-4)GlcNAc6S,-0.403
same,glycan array binding signal (z-score),GalNAc(b1-6)GalNAc,-0.244
same,glycan array binding signal (z-score),GalNAc3S(b1-4)GlcNAc,0.48
same,glycan array binding signal (z-score),GalNAc3S(b1-4)GlcNAc3S,0.932
same,glycan array binding signal (z-score),[12],-0.457
same,glycan array binding signal (z-score),GalNAc4S6S(b1-4)GlcNAc,1.07
same,glycan array binding signal (z-score),GalNAc6S(b1-4)GlcNAc,0.489
same,glycan array binding signal (z-score),Glc(a1-4)Glc,0.209
same,glycan array binding signal (z-score),[13],1.31
same,glycan array binding signal (z-score),Glc(a1-6)Glc(a1-6)Glc,-0.503
same,glycan array binding signal (z-score),[14],-0.322
same,glycan array binding signal (z-score),Glc(b1-4)Glc,-0.571

# Laid out differently: entries from further up
binder	measurement	setting	value
SJCP3842 (Schistosoma japonicum) (protein) MFKMRIINLVNISTVLLLINLLQTKSRLVGKENGFMLTVSIYGAQLSDKMTSVPVSWTIDYEDPEKSAFKKLVTDSCDTFSEYVKSQIPKGSVDGQCTSHIFQRPGSGSGVSISLTLSFIYVDVTQPDTVALKTELEKHFANFVTIHSHKITQAQFRINQKAIVIPTGDKDAIDGSKWKIIAIIALVALAIVVIGGFIYICVK	glycan array binding signal (z-score)	GalNAc3S(b1-4)GlcNAc3S	0.932
same	glycan array binding signal (z-score)	[12]	-0.457
